Measurements reported in PubChem BioAssay AID1259424 (University of Nebraska Medical Center, 2018)
Purpose: 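Rank knockdowns across the genome by resemblance to the KSR1 depletion profile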 (primary screen). System: human HCT116 colon cancer cells. Reagent: siRNA pool against human genes, 50 nM. Read-out: 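Six signature mRNAs by branched-DNA multiplex assay, scaled to two housekeeping genes and non-targeting median, log2; matched to mean KSR1 knockdown profile by Pearson correlation and euclidean distance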. Reading the numbers: mean correlation with KSR1 profile: higher = expression change more like KSR1 knockdown; mean distance from KSR1 profile: higher = expression change less like KSR1 knockdown.
This is one part, drawn at random, of about 14,000 reagents. 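Higher correlation or smaller distance means closer resemblance to KSR1 loss; control wells, including KSR1 knockdowns, recur on many plates.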 Further read-outs or replicates are left out here. The record does not give: the time to read-out.

With ARMC2 (armadillo repeat containing 2), how do the results read?
mean correlation with KSR1 profile: 0.764; mean distance from KSR1 profile: 1.61

How did the screen score PNO1 (partner of NOB1 homolog)?
mean correlation with KSR1 profile: -0.0655; mean distance from KSR1 profile: 2.61

Which result is listed for TRMT5 (tRNA methyltransferase 5)?
mean correlation with KSR1 profile: 0.0943; mean distance from KSR1 profile: 1.21

For CT55 (cancer/testis antigen 55), what was measured?
mean correlation with KSR1 profile: -0.598; mean distance from KSR1 profile: 1.47

Which result is listed for SMAD4 (SMAD family member 4)?
mean correlation with KSR1 profile: -0.156; mean distance from KSR1 profile: 2.36

For PLTP (phospholipid transfer protein), what was measured?
mean correlation with KSR1 profile: 0.433; mean distance from KSR1 profile: 1.5

For POU4F1 (POU class 4 homeobox 1), how do the results read?
mean correlation with KSR1 profile: -0.0563; mean distance from KSR1 profile: 2.03

What is on record for FGA (fibrinogen alpha chain)?
mean correlation with KSR1 profile: -0.131; mean distance from KSR1 profile: 1.83

What did the screen give for SURF6 (surfeit 6)?
mean correlation with KSR1 profile: -0.0048; mean distance from KSR1 profile: 1.69

Which result is listed for ATP6V1H (ATPase H+ transporting V1 subunit H)?
mean correlation with KSR1 profile: -0.41; mean distance from KSR1 profile: 1.88

Which result is listed for CARD8 (caspase recruitment domain family member 8)?
mean correlation with KSR1 profile: -0.383; mean distance from KSR1 profile: 1.88

With NOP58 (NOP58 ribonucleoprotein), what does the deposit list?
mean correlation with KSR1 profile: -0.908; mean distance from KSR1 profile: 4.38

For HTATSF1 (HIV-1 Tat specific factor 1), what does the deposit list?
mean correlation with KSR1 profile: -0.711; mean distance from KSR1 profile: 3.79

For CDKN2AIP (CDKN2A interacting protein), what was measured?
mean correlation with KSR1 profile: 0.0136; mean distance from KSR1 profile: 1.51

Which result is listed for SPINK5 (serine peptidase inhibitor Kazal type 5)?
mean correlation with KSR1 profile: 0.0846; mean distance from KSR1 profile: 1.72

With DPM3 (dolichyl-phosphate mannosyltransferase subunit 3, regulatory), what does the deposit list?
mean correlation with KSR1 profile: -0.343; mean distance from KSR1 profile: 3.13

Which result is listed for G6PC3 (glucose-6-phosphatase catalytic subunit 3)?
mean correlation with KSR1 profile: -0.0401; mean distance from KSR1 profile: 2.11

Which result is listed for ALKBH6 (alkB homolog 6, nucleotide demethylase)?
mean correlation with KSR1 profile: 0.538; mean distance from KSR1 profile: 1.94

For UTP25 (UTP25 small subunit processome component), how do the results read?
mean correlation with KSR1 profile: 0.0786; mean distance from KSR1 profile: 2.29

For TRAK1 (trafficking kinesin protein 1), what was measured?
mean correlation with KSR1 profile: -0.0555; mean distance from KSR1 profile: 3.73

For FOXD1 (forkhead box D1), what does the deposit list?
mean correlation with KSR1 profile: 0.777; mean distance from KSR1 profile: 3.49

What is on record for DOCK1 (dedicator of cytokinesis 1)?
mean correlation with KSR1 profile: 0.0401; mean distance from KSR1 profile: 1.35

Which result is listed for TTC33 (tetratricopeptide repeat domain 33)?
mean correlation with KSR1 profile: -0.683; mean distance from KSR1 profile: 2.04

Which result is listed for CCDC8 (coiled-coil domain containing 8 subunit of 3M complex)?
mean correlation with KSR1 profile: 0.536; mean distance from KSR1 profile: 1.91

With IL18 (interleukin 18), how do the results read?
mean correlation with KSR1 profile: 0.212; mean distance from KSR1 profile: 1.23

What is on record for JUNB (JunB proto-oncogene, AP-1 transcription factor subunit)?
mean correlation with KSR1 profile: 0.269; mean distance from KSR1 profile: 3.78

For CRH (corticotropin releasing hormone), how do the results read?
mean correlation with KSR1 profile: 0.377; mean distance from KSR1 profile: 1.03

What is on record for SNUPN (snurportin 1)?
mean correlation with KSR1 profile: 0.378; mean distance from KSR1 profile: 1.62

What did the screen give for NLRC4 (NLR family CARD domain containing 4)?
mean correlation with KSR1 profile: 0.435; mean distance from KSR1 profile: 2.76

For COLEC10 (collectin subfamily member 10), what was measured?
mean correlation with KSR1 profile: -0.229; mean distance from KSR1 profile: 2.25

Which result is listed for NAPB (NSF attachment protein beta)?
mean correlation with KSR1 profile: 0.0482; mean distance from KSR1 profile: 2.07

What is on record for CGRRF1 (cell growth regulator with ring finger domain 1)?
mean correlation with KSR1 profile: 0.105; mean distance from KSR1 profile: 1.15

What is on record for TSPAN15 (tetraspanin 15)?
mean correlation with KSR1 profile: -0.326; mean distance from KSR1 profile: 2.57

What is on record for MEGF10 (multiple EGF like domains 10)?
mean correlation with KSR1 profile: 0.0592; mean distance from KSR1 profile: 2.09

What is on record for GSN (gelsolin)?
mean correlation with KSR1 profile: -0.086; mean distance from KSR1 profile: 3.1

With LAMC2 (laminin subunit gamma 2), what was measured?
mean correlation with KSR1 profile: -0.0779; mean distance from KSR1 profile: 1.35

6 consecutive reagents from above:
NLRC4 (NLR family CARD domain containing 4) — mean correlation with KSR1 profile = 0.435; mean distance from KSR1 profile = 2.76
COLEC10 (collectin subfamily member 10) — mean correlation with KSR1 profile = -0.229; mean distance from KSR1 profile = 2.25
NAPB (NSF attachment protein beta) — mean correlation with KSR1 profile = 0.0482; mean distance from KSR1 profile = 2.07
CGRRF1 (cell growth regulator with ring finger domain 1) — mean correlation with KSR1 profile = 0.105; mean distance from KSR1 profile = 1.15
TSPAN15 (tetraspanin 15) — mean correlation with KSR1 profile = -0.326; mean distance from KSR1 profile = 2.57
MEGF10 (multiple EGF like domains 10) — mean correlation with KSR1 profile = 0.0592; mean distance from KSR1 profile = 2.09
